Paper PMC7364817
These are yes or no findings as the source states them, for the method shown. In cells and extracts the contact can be indirect. Here binding means that the protein was enriched with, or labelled near, the bait; the list need not be complete. Where a sequence is shown, tags or fusion partners need not be part of it.

Amino acid sequences for entries named in this document (tags omitted). A change or cut given only in a name is not applied to a line headed by its entry. Residues count along the entry.
UniProt P62333: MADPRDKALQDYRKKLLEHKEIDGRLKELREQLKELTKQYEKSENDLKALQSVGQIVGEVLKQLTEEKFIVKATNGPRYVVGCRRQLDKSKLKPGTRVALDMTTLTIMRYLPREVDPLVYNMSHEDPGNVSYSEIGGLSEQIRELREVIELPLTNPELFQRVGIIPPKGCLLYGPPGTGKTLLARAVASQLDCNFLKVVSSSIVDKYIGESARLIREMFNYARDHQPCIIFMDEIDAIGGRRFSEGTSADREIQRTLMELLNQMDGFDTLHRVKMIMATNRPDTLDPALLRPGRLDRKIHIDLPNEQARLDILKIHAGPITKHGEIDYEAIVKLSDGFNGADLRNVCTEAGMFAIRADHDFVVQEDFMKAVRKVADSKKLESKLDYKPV
UniProt P17980: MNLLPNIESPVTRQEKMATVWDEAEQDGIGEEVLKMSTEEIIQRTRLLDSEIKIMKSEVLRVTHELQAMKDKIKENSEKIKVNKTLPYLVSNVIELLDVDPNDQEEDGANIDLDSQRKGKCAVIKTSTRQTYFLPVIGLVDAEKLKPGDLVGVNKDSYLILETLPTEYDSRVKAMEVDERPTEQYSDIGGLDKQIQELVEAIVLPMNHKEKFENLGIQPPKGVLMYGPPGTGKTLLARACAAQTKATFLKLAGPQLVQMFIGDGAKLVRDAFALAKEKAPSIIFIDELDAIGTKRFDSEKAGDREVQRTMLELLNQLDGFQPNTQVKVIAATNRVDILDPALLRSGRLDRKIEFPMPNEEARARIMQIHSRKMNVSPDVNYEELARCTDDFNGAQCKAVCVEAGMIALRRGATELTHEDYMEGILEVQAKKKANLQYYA
UniProt P62191: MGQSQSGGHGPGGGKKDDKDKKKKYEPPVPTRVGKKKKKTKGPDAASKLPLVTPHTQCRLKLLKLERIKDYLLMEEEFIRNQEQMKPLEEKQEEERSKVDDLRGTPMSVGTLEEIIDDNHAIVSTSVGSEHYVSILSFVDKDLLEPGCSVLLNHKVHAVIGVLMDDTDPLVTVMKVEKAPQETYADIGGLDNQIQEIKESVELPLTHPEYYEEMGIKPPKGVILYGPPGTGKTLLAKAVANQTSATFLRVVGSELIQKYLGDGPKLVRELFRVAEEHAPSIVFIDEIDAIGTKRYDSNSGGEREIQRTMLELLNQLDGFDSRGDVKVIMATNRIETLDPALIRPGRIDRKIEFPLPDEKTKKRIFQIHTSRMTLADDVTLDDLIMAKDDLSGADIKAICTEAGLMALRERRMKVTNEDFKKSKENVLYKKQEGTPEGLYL
UniProt O14818: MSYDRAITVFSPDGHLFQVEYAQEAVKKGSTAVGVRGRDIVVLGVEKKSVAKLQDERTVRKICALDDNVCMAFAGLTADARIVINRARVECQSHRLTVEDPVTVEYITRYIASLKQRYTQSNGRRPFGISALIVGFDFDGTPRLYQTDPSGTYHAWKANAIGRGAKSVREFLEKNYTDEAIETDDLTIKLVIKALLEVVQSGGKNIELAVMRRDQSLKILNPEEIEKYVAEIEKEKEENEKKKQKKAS
UniProt P52948: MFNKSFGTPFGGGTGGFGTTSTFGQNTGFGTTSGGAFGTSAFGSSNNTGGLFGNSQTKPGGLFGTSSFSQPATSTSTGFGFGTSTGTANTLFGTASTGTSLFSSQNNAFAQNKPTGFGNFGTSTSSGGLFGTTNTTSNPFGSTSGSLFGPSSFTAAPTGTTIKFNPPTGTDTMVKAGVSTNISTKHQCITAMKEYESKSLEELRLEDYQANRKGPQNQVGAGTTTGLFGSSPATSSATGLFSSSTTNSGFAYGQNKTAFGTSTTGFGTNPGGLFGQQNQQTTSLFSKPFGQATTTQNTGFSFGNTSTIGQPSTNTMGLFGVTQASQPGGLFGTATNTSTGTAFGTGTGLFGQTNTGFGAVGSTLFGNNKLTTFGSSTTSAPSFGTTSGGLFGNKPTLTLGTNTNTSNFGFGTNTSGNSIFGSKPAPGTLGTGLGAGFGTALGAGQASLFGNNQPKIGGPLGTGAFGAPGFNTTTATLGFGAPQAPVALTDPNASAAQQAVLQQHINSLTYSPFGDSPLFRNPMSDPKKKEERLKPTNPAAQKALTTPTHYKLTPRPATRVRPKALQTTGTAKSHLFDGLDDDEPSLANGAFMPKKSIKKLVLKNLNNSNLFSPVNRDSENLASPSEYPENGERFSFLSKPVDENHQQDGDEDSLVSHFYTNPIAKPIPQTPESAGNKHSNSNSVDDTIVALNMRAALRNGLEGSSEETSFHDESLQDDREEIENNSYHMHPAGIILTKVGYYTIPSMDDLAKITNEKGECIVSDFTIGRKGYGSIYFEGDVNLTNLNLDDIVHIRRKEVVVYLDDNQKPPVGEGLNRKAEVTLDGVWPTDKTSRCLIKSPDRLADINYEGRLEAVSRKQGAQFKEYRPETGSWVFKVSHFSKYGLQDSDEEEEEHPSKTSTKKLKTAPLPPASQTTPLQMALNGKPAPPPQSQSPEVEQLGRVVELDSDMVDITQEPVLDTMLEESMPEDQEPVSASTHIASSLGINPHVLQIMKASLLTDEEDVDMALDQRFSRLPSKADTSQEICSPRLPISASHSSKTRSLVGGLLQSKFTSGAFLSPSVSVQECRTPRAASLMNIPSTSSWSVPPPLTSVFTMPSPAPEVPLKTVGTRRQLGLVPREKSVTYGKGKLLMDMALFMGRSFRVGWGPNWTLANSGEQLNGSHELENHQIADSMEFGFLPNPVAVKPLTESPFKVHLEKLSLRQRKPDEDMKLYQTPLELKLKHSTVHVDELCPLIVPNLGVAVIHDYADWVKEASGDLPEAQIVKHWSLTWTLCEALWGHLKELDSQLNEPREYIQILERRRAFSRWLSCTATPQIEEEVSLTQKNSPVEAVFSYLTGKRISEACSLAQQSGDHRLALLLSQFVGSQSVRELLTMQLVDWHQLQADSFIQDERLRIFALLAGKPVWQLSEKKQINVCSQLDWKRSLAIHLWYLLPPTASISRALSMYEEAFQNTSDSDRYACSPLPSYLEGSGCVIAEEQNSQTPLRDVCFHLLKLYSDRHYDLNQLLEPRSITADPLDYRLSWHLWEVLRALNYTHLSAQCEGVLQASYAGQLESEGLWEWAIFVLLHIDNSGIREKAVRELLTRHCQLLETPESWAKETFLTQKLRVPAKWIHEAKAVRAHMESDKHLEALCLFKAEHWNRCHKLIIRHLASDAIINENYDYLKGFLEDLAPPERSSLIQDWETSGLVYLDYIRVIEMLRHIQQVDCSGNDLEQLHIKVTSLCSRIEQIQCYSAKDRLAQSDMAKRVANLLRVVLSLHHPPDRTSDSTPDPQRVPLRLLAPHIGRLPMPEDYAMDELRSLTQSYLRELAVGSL
UniProt O75190: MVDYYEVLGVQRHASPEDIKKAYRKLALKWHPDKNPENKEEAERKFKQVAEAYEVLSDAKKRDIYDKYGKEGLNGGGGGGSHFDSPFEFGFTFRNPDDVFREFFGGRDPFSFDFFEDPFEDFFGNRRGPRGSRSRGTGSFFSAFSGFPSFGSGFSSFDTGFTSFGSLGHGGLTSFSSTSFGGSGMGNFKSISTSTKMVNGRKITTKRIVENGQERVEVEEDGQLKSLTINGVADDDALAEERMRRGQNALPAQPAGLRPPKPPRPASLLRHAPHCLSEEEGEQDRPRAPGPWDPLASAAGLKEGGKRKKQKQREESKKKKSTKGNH
UniProt Q99497: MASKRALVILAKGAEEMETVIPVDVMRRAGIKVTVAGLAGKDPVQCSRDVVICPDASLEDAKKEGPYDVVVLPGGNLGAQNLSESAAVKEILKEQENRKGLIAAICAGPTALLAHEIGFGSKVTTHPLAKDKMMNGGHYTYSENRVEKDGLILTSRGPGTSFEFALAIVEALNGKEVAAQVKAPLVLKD
UniProt Q9UBS4, residues 23-358: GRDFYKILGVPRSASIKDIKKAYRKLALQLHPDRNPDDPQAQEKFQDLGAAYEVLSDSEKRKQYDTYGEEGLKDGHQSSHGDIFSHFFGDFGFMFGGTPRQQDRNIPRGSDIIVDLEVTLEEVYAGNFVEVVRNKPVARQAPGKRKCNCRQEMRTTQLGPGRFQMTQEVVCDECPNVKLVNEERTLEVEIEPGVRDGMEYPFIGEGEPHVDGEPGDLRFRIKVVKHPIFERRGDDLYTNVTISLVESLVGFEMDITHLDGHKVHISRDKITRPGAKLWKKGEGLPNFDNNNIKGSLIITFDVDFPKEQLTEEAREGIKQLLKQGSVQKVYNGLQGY
UniProt P35637: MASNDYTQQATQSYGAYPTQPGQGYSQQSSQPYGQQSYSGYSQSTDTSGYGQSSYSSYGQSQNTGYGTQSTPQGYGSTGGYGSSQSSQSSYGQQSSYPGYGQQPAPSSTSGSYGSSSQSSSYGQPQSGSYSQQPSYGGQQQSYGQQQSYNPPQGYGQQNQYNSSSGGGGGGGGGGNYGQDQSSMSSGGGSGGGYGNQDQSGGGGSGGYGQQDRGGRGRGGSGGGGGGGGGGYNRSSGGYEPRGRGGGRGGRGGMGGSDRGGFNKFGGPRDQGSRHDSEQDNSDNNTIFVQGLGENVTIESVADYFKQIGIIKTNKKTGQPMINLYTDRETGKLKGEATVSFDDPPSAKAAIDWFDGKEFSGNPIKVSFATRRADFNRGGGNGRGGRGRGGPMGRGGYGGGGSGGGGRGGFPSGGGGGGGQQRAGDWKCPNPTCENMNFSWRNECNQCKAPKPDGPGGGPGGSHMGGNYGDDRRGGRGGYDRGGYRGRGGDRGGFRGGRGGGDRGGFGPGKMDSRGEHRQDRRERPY
UniProt P51665: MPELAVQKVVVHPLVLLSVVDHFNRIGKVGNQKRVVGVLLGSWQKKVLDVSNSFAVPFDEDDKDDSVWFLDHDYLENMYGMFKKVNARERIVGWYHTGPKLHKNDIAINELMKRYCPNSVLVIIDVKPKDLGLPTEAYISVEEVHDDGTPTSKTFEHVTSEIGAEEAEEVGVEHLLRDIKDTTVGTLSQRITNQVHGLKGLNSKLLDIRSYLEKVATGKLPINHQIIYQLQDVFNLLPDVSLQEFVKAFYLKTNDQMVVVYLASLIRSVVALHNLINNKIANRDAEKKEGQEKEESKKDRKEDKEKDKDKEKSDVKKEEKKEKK
UniProt Q92598: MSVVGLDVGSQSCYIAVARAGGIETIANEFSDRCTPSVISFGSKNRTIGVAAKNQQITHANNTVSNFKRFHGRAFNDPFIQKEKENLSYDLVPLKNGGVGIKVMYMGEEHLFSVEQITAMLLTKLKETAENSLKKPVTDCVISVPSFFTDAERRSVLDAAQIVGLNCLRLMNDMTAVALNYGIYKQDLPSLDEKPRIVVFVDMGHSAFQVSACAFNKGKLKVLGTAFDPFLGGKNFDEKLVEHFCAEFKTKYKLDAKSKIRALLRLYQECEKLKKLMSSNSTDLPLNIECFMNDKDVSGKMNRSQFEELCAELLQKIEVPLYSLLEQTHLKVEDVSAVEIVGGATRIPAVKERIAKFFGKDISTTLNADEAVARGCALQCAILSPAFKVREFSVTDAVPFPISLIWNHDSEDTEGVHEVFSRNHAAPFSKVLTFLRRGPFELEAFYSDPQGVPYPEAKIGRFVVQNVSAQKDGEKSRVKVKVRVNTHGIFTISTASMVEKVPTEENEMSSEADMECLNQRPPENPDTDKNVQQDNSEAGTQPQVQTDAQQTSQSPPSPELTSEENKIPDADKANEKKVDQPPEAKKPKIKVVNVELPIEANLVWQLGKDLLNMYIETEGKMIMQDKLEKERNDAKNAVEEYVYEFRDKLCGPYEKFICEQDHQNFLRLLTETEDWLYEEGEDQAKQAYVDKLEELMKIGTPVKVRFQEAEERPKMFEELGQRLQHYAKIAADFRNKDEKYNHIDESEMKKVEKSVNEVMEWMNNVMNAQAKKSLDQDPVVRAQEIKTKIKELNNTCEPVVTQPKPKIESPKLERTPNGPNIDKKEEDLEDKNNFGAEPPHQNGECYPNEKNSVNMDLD
UniProt Q14318: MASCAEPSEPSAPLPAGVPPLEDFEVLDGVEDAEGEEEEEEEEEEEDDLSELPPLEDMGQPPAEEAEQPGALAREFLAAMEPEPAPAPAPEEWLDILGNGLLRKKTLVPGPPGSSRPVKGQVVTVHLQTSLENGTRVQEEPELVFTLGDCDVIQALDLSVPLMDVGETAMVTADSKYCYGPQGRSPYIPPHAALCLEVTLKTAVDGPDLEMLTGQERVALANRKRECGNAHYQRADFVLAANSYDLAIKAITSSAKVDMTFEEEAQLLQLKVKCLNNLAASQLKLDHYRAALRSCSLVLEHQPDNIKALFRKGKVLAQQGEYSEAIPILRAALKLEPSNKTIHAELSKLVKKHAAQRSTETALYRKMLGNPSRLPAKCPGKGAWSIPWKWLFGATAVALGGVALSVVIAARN
UniProt P63104: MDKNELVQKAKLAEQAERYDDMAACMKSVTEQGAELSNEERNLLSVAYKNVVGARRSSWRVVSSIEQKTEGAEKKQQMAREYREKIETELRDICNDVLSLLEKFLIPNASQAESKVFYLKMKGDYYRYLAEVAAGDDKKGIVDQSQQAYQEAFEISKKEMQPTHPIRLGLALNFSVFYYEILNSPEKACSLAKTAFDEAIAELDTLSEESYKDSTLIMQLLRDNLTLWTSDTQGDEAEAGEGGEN

Molecular target: T1, FLAG-tagged SMCR8 (Smith-Magenis Syndrome Chromosome Region, Candidate 8) (UniProt Q8TEV9)
T1 sequence: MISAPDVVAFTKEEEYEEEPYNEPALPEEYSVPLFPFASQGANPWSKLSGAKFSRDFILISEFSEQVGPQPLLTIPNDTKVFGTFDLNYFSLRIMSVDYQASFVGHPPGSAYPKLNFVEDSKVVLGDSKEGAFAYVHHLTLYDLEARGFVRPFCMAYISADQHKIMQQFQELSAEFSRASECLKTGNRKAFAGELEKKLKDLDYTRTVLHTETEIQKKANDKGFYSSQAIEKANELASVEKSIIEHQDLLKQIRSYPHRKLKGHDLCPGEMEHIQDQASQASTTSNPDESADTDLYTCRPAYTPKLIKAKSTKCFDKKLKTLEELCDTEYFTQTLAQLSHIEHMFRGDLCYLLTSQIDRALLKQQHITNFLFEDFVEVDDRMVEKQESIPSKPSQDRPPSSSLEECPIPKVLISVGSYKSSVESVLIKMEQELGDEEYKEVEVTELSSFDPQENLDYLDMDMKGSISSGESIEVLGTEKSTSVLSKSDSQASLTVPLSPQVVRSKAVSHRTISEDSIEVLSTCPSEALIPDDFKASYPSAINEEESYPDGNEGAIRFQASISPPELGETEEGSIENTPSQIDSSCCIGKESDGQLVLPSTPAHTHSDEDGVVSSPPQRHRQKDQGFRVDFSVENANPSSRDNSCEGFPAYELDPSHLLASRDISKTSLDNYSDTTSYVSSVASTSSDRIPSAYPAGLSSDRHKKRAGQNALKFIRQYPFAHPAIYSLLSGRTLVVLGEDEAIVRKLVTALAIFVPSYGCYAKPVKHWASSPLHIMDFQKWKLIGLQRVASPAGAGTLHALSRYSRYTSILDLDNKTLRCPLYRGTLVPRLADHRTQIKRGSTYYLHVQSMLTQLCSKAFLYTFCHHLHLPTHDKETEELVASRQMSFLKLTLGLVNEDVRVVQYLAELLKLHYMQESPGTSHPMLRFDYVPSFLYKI
Experiment: affinity purification with mass spectrometry; FL-SMCR8, C9orf72-FL or empty vector transfected in HEK 293T; α-FLAG agarose IP from whole cell lysates with or without RNase; LC-MS/MS; hits with three or more spectra and not detected in vector only control

## proteasome 26S subunit, ATPase 6 (from UniProt P62333 1-389)
  binding: binds

## DNA polymerase delta 1, catalytic subunit (from UniProt P28340 1-1107)
  binding: binds

## proteasome 26S subunit, non-ATPase 2 (from UniProt Q13200 1-908)
  binding: binds

## proteasome 26S subunit, ATPase 3 (from UniProt P17980 1-439)
  binding: binds

## minichromosome maintenance complex component 2 (from UniProt P49736 1-904)
  binding: binds

## proteasome 26S subunit, ATPase 1 (from UniProt P62191 1-440)
  binding: binds

## cyclin dependent kinase inhibitor 2A (human (endogenous in HEK 293T))
  binding: binds

## major histocompatibility complex, class I, A (from UniProt P04439 25-365)
  binding: binds

## PDK3 (human (endogenous in HEK 293T))
  binding: binds

## proteasome subunit alpha 7 (from UniProt O14818 1-248)
  binding: binds

## nucleoporin 98 (from UniProt P52948)
  binding: binds

## replication factor C subunit 3 (from UniProt P40938 1-356)
  binding: binds

## DnaJ heat shock protein family member B6 (from UniProt O75190 1-326)
  binding: binds

## ALDH3A2 (from UniProt P51648 1-485)
  binding: binds

## Parkinsonism associated deglycase (from UniProt Q99497 1-189)
  binding: binds

## threonyl-tRNA synthetase 2, mitochondrial (putative) (human (endogenous in HEK 293T))
  binding: binds

## glutamyl-prolyl-tRNA synthetase (from UniProt P07814 1-1512)
  binding: binds

## RAN binding protein 2, E3 SUMO ligase (from UniProt P49792 1-3224)
  binding: binds

## DnaJ heat shock protein family (Hsp40) member B11 (from UniProt Q9UBS4 23-358)
  binding: binds

## DnaJ heat shock protein family member A1 (from UniProt P31689 1-397)
  binding: binds

## FUS (from UniProt P35637 1-526)
  binding: binds

## proteasome 26S subunit, non-ATPase 7 (from UniProt P51665 1-324)
  binding: binds

## heat shock protein family H (Hsp110) member 1 (from UniProt Q92598 1-858)
  binding: binds

## leucyl-tRNA synthetase (from UniProt Q9P2J5 1-1176)
  binding: binds

## FK506 binding protein 8 (from UniProt Q14318 1-412)
  binding: binds

## ATXN2 (from UniProt Q99700 1-1313)
  binding: binds

## ubiquitin protein ligase E3 component n-recognin 5 (from UniProt O95071 1-2799)
  binding: binds

## DnaJ heat shock protein family (Hsp40) member A2 (from UniProt O60884 1-412)
  binding: binds

## tyrosine 3-monooxygenase/tryptophan 5-monooxygenase activation protein zeta (from UniProt P63104 1-245)
  binding: binds

B1: ANKRD28 (protein, UniProt O15084 1-1053)
chain: MAFLKLRDQPSLVQAIFNGDPDEVRALIFKKEDVNFQDNEKRTPLHAAAYLGDAEIIELLILSGARVNAKDSKWLTPLHRAVASCSEEAVQVLLKHSADVNARDKNWQTPLHIAAANKAVKCAEALVPLLSNVNVSDRAGRTALHHAAFSGHGEMVKLLLSRGANINAFDKKDRRAIHWAAYMGHIEVVKLLVSHGAEVTCKDKKSYTPLHAAASSGMISVVKYLLDLGVDMNEPNAYGNTPLHVACYNGQDVVVNELIDCGAIVNQKNEKGFTPLHFAAASTHGALCLELLVGNGADVNMKSKDGKTPLHMTALHGRFSRSQTIIQSGAVIDCEDKNGNTPLHIAARYGHELLINTLITSGADTAKRGIHGMFPLHLAALSGFSDCCRKLLSSGFDIDTPDDFGRTCLHAAAAGGNLECLNLLLNTGADFNKKDKFGRSPLHYAAANCNYQCLFALVGSGASVNDLDERGCTPLHYAATSDTDGKCLEYLLRNDANPGIRDKQGYNAVHYSAAYGHRLCLQLIASETPLDVLMETSGTDMLSDSDNRATISPLHLAAYHGHHQALEVLVQSLLDLDVRNSSGRTPLDLAAFKGHVECVDVLINQGASILVKDYILKRTPIHAAATNGHSECLRLLIGNAEPQNAVDIQDGNGQTPLMLSVLNGHTDCVYSLLNKGANVDAKDKWGRTALHRGAVTGHEECVDALLQHGAKCLLRDSRGRTPIHLSAACGHIGVLGALLQSAASMDANPATADNHGYTALHWACYNGHETCVELLLEQEVFQKTEGNAFSPLHCAVINDNEGAAEMLIDTLGASIVNATDSKGRTPLHAAAFTDHVECLQLLLSHNAQVNSVDSTGKTPLMMAAENGQTNTVEMLVSSASAELTLQDNSKNTALHLACSKGHETSALLILEKITDRNLINATNAALQTPLHVAARNGLTMVVQELLGKGASVLAVDENGYTPALACAPNKDVADCLALILATMMPVSSSSPLSSLTFNAINRYTNTSKTVSFEALPIMRNEPSSYCSFNNIGGEQEYLYTDVDELNDSDSETY
  binding: binds

B2: adaptor related proteincomplex 3 Mu 1 subunit (protein, UniProt Q9Y2T2 1-418)
chain: MIHSLFLINCSGDIFLEKHWKSVVSQSVCDYFFEAQEKAADVENVPPVISTPHHYLISIYRDKLFFVSVIQTEVPPLFVIEFLHRVADTFQDYFGECSEAAIKDNVVIVYELLEEMLDNGFPLATESNILKELIKPPTILRSVVNSITGSSNVGDTLPTGQLSNIPWRRAGVKYTNNEAYFDVVEEIDAIIDKSGSTVFAEIQGVIDACIKLSGMPDLSLSFMNPRLLDDVSFHPCIRFKRWESERVLSFIPPDGNFRLISYRVSSQNLVAIPVYVKHSISFKENSSCGRFDITIGPKQNMGKTIEGITVTVHMPKVVLNMNLTPTQGSYTFDPVTKVLTWDVGKITPQKLPSLKGLVNLQSGAPKPEENPSLNIQFKIQQLAISGLKVNRLDMYGEKYKPFKGVKYVTKAGKFQVRT
  binding: binds

B3: ribophorin I (protein, UniProt P04843 24-607)
chain: ASSEAPPLINEDVKRTVDLSSHLAKVTAEVVLAHLGGGSTSRATSFLLALEPELEARLAHLGVQVKGEDEEENNLEVRETKIKGKSGRFFTVKLPVALDPGAKISVIVETVYTHVLHPYPTQITQSEKQFVVFEGNHYFYSPYPTKTQTMRVKLASRNVESYTKLGNPTRSEDLLDYGPFRDVPAYSQDTFKVHYENNSPFLTITSMTRVIEVSHWGNIAVEENVDLKHTGAVLKGPFSRYDYQRQPDSGISSIRSFKTILPAAAQDVYYRDEIGNVSTSHLLILDDSVEMEIRPRFPLFGGWKTHYIVGYNLPSYEYLYNLGDQYALKMRFVDHVFDEQVIDSLTVKIILPEGAKNIEIDSPYEISRAPDELHYTYLDTFGRPVIVAYKKNLVEQHIQDIVVHYTFNKVLMLQEPLLVVAAFYILFFTVIIYVRLDFSITKDPAAEARMKVACITEQVLTLVNKRIGLYRHFDETVNRYKQSRDISTLNSGKKSLETEHKALTSEIALLQSRLKTEGSDLCDRVSEMQKLDAQVKELVLKSAVEAERLVAGKLKKDTYIENEKLISGKRQELVTKIDHILDAL
  binding: binds

B4: dolichyl-diphosphooligosaccharide--protein glycosyltransferase 48 kD subunit (protein, UniProt P39656 43-456)
chain: SGPRTLVLLDNLNVRETHSLFFRSLKDRGFELTFKTADDPSLSLIKYGEFLYDNLIIFSPSVEDFGGNINVETISAFIDGGGSVLVAASSDIGDPLRELGSECGIEFDEEKTAVIDHHNYDISDLGQHTLIVADTENLLKAPTIVGKSSLNPILFRGVGMVADPDNPLVLDILTGSSTSYSFFPDKPITQYPHAVGKNTLLIAGLQARNNARVIFSGSLDFFSDSFFNSAVQKAAPGSQRYSQTGNYELAVALSRWVFKEEGVLRVGPVSHHRVGETAPPNAYTVTDLVEYSIVIQQLSNGKWVPFDGDDIQLEFVRIDPFVRTFLKKKGGKYSVQFKLPDVYGVFQFKVDYNRLGYTHLYSSTQVSVRPLQHTQYERFIPSAYPYYASAFSMMLGLFIFSIVFLHMKEKEKSD
  binding: binds
